Results on one substance are retold here after PMC8660812.

Sequences of proteins named here, by UniProt entry; tags and fusion partners are left off.
UniProt P49841: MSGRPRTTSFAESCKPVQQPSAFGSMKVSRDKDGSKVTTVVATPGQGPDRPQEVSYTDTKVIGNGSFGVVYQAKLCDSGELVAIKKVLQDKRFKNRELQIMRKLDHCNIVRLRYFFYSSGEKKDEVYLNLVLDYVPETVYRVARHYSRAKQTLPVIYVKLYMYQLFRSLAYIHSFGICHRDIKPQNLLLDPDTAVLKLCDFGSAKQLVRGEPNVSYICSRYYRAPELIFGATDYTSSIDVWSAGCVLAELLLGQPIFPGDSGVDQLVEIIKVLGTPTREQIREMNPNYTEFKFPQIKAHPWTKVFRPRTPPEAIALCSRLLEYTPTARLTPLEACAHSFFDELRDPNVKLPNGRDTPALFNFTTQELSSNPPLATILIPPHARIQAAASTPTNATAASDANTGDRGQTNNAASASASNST
UniProt P35579: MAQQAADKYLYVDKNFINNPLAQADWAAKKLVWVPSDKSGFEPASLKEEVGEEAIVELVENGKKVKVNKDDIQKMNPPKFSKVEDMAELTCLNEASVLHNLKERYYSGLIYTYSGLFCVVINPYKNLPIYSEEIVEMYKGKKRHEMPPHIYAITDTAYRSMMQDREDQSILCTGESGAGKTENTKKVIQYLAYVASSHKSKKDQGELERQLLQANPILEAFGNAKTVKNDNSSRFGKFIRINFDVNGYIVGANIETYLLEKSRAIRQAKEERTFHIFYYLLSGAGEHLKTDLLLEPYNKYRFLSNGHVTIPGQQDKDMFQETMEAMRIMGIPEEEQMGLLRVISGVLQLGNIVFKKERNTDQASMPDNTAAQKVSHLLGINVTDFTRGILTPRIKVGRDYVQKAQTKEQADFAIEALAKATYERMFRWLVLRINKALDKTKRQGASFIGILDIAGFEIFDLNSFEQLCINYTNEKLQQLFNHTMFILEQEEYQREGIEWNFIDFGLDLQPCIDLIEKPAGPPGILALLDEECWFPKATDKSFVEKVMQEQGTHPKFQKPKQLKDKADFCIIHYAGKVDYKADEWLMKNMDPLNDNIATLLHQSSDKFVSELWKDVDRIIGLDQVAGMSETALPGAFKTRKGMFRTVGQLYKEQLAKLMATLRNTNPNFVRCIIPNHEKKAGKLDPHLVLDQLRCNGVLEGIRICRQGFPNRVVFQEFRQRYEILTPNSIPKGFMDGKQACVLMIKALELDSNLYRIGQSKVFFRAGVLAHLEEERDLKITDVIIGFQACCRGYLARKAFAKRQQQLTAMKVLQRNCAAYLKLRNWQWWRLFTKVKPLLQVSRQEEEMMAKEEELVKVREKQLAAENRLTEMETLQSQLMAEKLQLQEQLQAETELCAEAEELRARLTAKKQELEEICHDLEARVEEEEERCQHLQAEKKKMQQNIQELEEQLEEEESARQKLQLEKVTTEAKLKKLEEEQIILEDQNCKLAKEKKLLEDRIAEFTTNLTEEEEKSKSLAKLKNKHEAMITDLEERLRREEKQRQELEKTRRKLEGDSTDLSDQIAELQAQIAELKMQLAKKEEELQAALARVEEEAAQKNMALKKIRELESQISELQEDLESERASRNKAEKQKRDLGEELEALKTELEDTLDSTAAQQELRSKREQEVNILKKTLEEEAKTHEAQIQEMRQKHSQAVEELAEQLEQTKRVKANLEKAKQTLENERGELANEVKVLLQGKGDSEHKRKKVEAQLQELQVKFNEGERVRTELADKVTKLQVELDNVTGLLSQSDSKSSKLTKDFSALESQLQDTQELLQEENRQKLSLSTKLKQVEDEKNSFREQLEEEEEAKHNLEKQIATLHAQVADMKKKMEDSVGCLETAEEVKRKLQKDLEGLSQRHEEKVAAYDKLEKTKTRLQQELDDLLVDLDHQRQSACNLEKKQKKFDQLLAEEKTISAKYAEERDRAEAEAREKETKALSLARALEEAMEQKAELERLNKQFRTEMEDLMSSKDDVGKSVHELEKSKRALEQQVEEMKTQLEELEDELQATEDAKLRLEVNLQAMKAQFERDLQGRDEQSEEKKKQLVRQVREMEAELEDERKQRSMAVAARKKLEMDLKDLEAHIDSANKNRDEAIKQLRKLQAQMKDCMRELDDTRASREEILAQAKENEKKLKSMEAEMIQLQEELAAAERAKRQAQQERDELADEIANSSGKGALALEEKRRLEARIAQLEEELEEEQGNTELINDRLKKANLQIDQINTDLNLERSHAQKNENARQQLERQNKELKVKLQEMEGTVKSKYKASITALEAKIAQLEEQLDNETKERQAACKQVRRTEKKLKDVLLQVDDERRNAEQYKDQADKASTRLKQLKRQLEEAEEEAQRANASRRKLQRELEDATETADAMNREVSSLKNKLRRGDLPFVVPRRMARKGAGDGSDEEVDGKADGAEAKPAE

These are yes or no findings as the source states them, for the method shown. Binding seen in cells or lysates may run through a third protein. Some results given as binding are weak or reduced against the parent protein; the word gives no strength.

The target in the assay is GSK-3β (human (endogenous in U87 / LN229 glioma cells)) (UniProt P49841). In words: co-IP; Pierce Co-Immunoprecipitation kit; 5 mg total cell protein incubated with 10 μg specific antibodies (Abcam) or IgG overnight at 4 °C; western blotting; IgG as negative control; samples with and without MYH9 overexpression. (Immunoblotting shows a protein as a band on a membrane.)

For the substance “Myosin heavy chain 9 (MYH9) (from UniProt P35579 1-1960)”, the binding entry is on record as “binds”.
